Assay results published in paper PMC12320230, “BAY11-7082 Targets RNF25 to Reverse TRIP4 Ubiquitination-dependent NF-κB Activation and Apoptosis Resistance in Renal Cell Carcinoma” (International Journal of Biological Sciences, 2025).
No constants are given. Whether binding was seen depends on the method and setting. Binding seen in cells or lysates may run through a third protein. Some binding calls cover weakened binding; strength is not graded here. For some of these results: Sequences can lack the tags named with a protein.

By UniProt entry, the sequences of proteins in these tests, tags left out. Residues count along the entry.
UniProt Q04206: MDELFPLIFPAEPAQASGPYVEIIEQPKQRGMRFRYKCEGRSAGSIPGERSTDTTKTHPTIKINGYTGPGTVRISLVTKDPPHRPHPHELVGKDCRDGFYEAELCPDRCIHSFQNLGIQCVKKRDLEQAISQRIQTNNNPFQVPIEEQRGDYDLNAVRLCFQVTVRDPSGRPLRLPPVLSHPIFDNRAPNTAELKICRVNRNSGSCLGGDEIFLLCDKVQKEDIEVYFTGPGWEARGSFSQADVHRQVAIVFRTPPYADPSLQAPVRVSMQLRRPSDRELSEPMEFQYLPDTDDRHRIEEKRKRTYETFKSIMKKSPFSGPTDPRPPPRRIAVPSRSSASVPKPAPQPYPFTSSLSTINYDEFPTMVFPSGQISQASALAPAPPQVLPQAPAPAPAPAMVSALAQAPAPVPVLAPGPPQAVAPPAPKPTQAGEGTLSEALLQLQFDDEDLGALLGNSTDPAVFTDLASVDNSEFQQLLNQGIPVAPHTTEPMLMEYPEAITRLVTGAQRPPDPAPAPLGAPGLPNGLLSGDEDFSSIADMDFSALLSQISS
UniProt P19838, residues 1-433: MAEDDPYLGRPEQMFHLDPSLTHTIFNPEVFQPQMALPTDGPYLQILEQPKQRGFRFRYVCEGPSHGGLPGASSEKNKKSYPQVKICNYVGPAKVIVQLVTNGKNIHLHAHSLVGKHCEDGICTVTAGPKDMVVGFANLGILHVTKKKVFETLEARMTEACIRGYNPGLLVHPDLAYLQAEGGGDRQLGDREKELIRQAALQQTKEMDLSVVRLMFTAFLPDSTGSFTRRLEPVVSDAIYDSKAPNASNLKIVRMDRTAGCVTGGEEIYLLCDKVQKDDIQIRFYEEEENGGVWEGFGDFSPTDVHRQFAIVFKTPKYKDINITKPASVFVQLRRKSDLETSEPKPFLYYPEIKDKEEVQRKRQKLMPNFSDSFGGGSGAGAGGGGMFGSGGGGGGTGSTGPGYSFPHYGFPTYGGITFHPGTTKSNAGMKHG

T1: Flag-TRIP4 (UniProt Q15650)
T1 sequence: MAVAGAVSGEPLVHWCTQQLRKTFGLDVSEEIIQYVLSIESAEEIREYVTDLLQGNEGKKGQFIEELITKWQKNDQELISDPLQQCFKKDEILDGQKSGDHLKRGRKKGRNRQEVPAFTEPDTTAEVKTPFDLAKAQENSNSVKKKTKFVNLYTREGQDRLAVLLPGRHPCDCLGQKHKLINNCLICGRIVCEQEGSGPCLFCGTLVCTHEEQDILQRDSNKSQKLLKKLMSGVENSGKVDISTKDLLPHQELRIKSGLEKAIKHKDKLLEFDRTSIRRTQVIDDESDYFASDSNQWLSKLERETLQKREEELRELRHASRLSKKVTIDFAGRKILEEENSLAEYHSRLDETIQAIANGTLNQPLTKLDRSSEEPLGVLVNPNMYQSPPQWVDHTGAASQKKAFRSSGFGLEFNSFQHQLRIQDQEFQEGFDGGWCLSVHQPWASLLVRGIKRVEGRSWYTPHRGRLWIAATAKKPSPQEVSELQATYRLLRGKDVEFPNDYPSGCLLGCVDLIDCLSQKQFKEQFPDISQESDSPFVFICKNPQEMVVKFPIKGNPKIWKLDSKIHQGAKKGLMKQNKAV

T2: Flag-TRIP4 K135R (UniProt Q15650)
T2 sequence: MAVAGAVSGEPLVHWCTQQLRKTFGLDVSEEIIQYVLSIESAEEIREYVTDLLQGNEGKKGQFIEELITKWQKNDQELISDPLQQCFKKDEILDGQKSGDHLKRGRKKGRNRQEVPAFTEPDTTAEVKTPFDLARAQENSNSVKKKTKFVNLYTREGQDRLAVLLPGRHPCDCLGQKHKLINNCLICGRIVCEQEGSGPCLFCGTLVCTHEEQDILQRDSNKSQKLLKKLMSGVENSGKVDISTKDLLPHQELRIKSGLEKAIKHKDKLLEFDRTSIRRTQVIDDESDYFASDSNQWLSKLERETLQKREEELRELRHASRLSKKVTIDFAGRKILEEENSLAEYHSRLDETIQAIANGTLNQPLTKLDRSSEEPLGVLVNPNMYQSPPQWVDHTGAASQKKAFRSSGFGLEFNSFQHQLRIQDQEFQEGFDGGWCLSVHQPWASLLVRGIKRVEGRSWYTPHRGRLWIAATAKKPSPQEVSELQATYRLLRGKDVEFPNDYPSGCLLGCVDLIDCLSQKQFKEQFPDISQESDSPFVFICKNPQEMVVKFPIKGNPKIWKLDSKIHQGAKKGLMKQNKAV

T3: GST-TRIP4 (UniProt Q15650)
T3 sequence: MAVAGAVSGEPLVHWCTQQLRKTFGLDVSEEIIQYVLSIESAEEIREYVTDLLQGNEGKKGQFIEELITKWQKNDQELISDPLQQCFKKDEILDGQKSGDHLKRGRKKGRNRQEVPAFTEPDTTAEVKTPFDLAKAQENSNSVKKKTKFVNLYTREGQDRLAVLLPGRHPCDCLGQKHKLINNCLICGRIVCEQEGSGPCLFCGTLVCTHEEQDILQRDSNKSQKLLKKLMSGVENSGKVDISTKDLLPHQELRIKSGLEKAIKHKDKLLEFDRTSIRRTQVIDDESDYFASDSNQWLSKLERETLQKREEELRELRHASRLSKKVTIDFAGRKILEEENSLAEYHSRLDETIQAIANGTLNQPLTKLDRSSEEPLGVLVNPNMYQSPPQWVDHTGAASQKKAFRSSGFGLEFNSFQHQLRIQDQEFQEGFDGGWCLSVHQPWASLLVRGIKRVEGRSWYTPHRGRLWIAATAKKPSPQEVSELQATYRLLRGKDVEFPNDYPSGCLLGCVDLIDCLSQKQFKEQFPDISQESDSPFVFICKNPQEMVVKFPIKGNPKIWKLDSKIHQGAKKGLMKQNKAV

T4: RNF25 (human (endogenous in SW839)) (UniProt Q96BH1)
T4 sequence: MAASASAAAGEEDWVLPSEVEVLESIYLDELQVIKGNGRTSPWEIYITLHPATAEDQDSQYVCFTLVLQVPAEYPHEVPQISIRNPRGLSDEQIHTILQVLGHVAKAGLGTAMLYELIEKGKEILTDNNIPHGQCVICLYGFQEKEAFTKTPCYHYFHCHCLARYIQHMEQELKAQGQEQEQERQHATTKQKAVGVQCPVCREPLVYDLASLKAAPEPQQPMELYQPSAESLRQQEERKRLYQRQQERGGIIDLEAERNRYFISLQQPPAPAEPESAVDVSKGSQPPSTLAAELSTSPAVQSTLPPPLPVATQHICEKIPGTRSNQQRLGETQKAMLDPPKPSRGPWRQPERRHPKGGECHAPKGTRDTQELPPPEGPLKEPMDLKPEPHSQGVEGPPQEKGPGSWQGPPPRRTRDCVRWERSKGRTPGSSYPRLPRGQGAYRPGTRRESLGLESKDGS

B1: RNF25 (protein, UniProt Q96BH1 1-459)
chain: MAASASAAAGEEDWVLPSEVEVLESIYLDELQVIKGNGRTSPWEIYITLHPATAEDQDSQYVCFTLVLQVPAEYPHEVPQISIRNPRGLSDEQIHTILQVLGHVAKAGLGTAMLYELIEKGKEILTDNNIPHGQCVICLYGFQEKEAFTKTPCYHYFHCHCLARYIQHMEQELKAQGQEQEQERQHATTKQKAVGVQCPVCREPLVYDLASLKAAPEPQQPMELYQPSAESLRQQEERKRLYQRQQERGGIIDLEAERNRYFISLQQPPAPAEPESAVDVSKGSQPPSTLAAELSTSPAVQSTLPPPLPVATQHICEKIPGTRSNQQRLGETQKAMLDPPKPSRGPWRQPERRHPKGGECHAPKGTRDTQELPPPEGPLKEPMDLKPEPHSQGVEGPPQEKGPGSWQGPPPRRTRDCVRWERSKGRTPGSSYPRLPRGQGAYRPGTRRESLGLESKDGS
B2: Myc-RNF25 (protein, UniProt Q96BH1 1-459)
chain: MAASASAAAGEEDWVLPSEVEVLESIYLDELQVIKGNGRTSPWEIYITLHPATAEDQDSQYVCFTLVLQVPAEYPHEVPQISIRNPRGLSDEQIHTILQVLGHVAKAGLGTAMLYELIEKGKEILTDNNIPHGQCVICLYGFQEKEAFTKTPCYHYFHCHCLARYIQHMEQELKAQGQEQEQERQHATTKQKAVGVQCPVCREPLVYDLASLKAAPEPQQPMELYQPSAESLRQQEERKRLYQRQQERGGIIDLEAERNRYFISLQQPPAPAEPESAVDVSKGSQPPSTLAAELSTSPAVQSTLPPPLPVATQHICEKIPGTRSNQQRLGETQKAMLDPPKPSRGPWRQPERRHPKGGECHAPKGTRDTQELPPPEGPLKEPMDLKPEPHSQGVEGPPQEKGPGSWQGPPPRRTRDCVRWERSKGRTPGSSYPRLPRGQGAYRPGTRRESLGLESKDGS
B3: TRIP4 (protein, UniProt Q15650 1-581)
chain: MAVAGAVSGEPLVHWCTQQLRKTFGLDVSEEIIQYVLSIESAEEIREYVTDLLQGNEGKKGQFIEELITKWQKNDQELISDPLQQCFKKDEILDGQKSGDHLKRGRKKGRNRQEVPAFTEPDTTAEVKTPFDLAKAQENSNSVKKKTKFVNLYTREGQDRLAVLLPGRHPCDCLGQKHKLINNCLICGRIVCEQEGSGPCLFCGTLVCTHEEQDILQRDSNKSQKLLKKLMSGVENSGKVDISTKDLLPHQELRIKSGLEKAIKHKDKLLEFDRTSIRRTQVIDDESDYFASDSNQWLSKLERETLQKREEELRELRHASRLSKKVTIDFAGRKILEEENSLAEYHSRLDETIQAIANGTLNQPLTKLDRSSEEPLGVLVNPNMYQSPPQWVDHTGAASQKKAFRSSGFGLEFNSFQHQLRIQDQEFQEGFDGGWCLSVHQPWASLLVRGIKRVEGRSWYTPHRGRLWIAATAKKPSPQEVSELQATYRLLRGKDVEFPNDYPSGCLLGCVDLIDCLSQKQFKEQFPDISQESDSPFVFICKNPQEMVVKFPIKGNPKIWKLDSKIHQGAKKGLMKQNKAV

Experiments:
Flag-TRIP4 [1] = target: T1, Flag-TRIP4; experiment: co-IP; anti-Flag-TRIP4 immunoprecipitates from 293T cells, Western blot for NF-κB and IKK complex proteins
Flag-TRIP4 K135R = target: T2, Flag-TRIP4 K135R; experiment: co-IP; ectopically expressed tagged proteins, 293T cells transfected 48 h; HA-/Flag-conjugated agarose beads; IP buffer 50 mM Tris-HCl pH 7.4, 150 mM NaCl, 0.1% NP-40; also with RNF25 co-expression, RNF25 knock-down or BAY11-7082
Flag-TRIP4 [2] = target: T1, Flag-TRIP4; experiment: as above
GST-TRIP4 = target: T3, GST-TRIP4; experiment: pull-down; GST-TRIP4 recombinant protein (GST-EV as control) as bait; proteins of SW839 cells pulled down, Western blot; only the target purified
[3] = target: p65 (human (endogenous in SW839)) (UniProt Q04206); experiment: co-IP; endogenous proteins in SW839 lysate; anti-RNF25 or anti-p65 antibody on protein A/G beads; IP buffer 50 mM Tris-HCl pH 7.4, 150 mM NaCl, 0.1% NP-40; also parental against ABT-199-resistant SW839 cells
[4] = target: T4, RNF25 (human (endogenous in SW839)); experiment: as above

Molecule | binding (Flag-TRIP4 [1]) | binding (Flag-TRIP4 [2]) | binding (GST-TRIP4) | binding [3] | other results
p50 (from UniProt P19838 1-433) | binds |  |  |  | 
HA-tagged p65 (from UniProt Q04206 1-551) |  | binds |  |  | binding (Flag-TRIP4 K135R): binds
p65 (from UniProt Q04206 1-551) | binds |  | binds |  | 
B1 |  |  | binds | binds | 
B2 |  | binds |  |  | 
B3 |  |  |  | binds | binding [4]: binds
